These results are taken from publication PMC12003902.

No constants are given. Whether binding was seen depends on the method and setting. In cells and extracts the contact can be indirect. A yes stands for co-enrichment or nearness to the bait. Other partners may have been found. A no says only that the protein was not detected with the bait.

This assay deals with dense granule protein 12 (GRA12), endogenously C-terminally HA-tagged (RH GRA12-HA) (Toxoplasma gondii). The assay is described as follows: affinity purification with mass spectrometry; anti-HA agarose beads, overnight 4 °C; lysates of PWD/PhJ BMDMs treated 24 h with 10 U/ml mIFNγ and infected 24 h with RH GRA12-HA or RH ΔKU80 (control), triplicate; IP buffer 10 mM Tris, 150 mM NaCl, 0.5 mM EDTA, 0.4% NP40, pH 7.5.

B1: GRA2 (protein, UniProt P13404 24-185)
chain: AEFSGVVNQGPVDVPFSGKPLDERAVGGKGEHTPPLPDERQQEPEEPVSQRASRVAEQLFRKFLKFAENVGHHSEKAFKKAKVVAEKGFTAAKTHTVRGFKVAKEAAGRGMVTVGKKLANVESDRSTTTTQAPDSPNGLAETEVPVEPQQRAAHVPVPDFSQ
For the molecule B1, the binding entry is listed as “no binding”.
